Test results taken from PubChem BioAssay AID588519 (ICCB-Longwood Screening Facility, Harvard Medical School, 2011).
The list shows a part of the results.

biological target: Genome polyprotein (Poliovirus type 1 (strain Mahoney)) (UniProt P03300); assay: poliovirus RdRp elongation inhibitors, primary screen, biochemical, fluorescence polarization, total intensity (AID 588519); details: poliovirus polymerase elongation, stronger effect = lower value; % elongation: measured here: total intensity read-out, compound at 16.7 µg/mL; z-score: measured here: FP z-score

Row | Structure (SMILES) | % elongation [%] | z-score
1 | FC(F)(F)Oc1ccc(NC2CCNCC2)cc1 | 104 | -1.2
2 | NC(=O)C1(Nc2ccc(F)cc2)CCNCC1 | 104 | 0.2
3 | Cc1ccc(C(=O)NCC2(N(C)C)CCCCC2)o1 | 106 | 0.3
4 | CCCCOc1ccccc1C(=O)NCC1(N2CCOCC2)CCCCC1 | 102 | -0.3
5 | O=C(NCC1(N2CCOCC2)CCCCC1)c1ccccc1Br | 106 | -2
6 | c1ccc(CN2CCC(Nc3ccc4c(c3)OCO4)CC2)cc1 | 105 | -1.7
7 | Cn1nc(C(=O)NCC2(N3CCCCC3)CCCCC2)c2ccccc2c1=O | 106 | -0.2
8 | CCOc1ccc(C(=O)NCC2(N3CCOCC3)CCCCC2)cc1 | 109 | -0.5
9 | CC(C)(C)OC(=O)N1CCC(Nc2ccc(OC(F)(F)F)cc2)CC1 | 98 | 0.2
10 | CCCOc1cccc(C(=O)NCC2(N3CCOCC3)CCCCC2)c1 | 104 | -1.3
11 | O=C(NCC1(N2CCOCC2)CCCCC1)c1ccc(Cl)cc1 | 92 | -2.2
12 | O=C(NCC1(N2CCOCC2)CCCCC1)c1ccc2nc[nH]c2c1 | 109 | 0.2
13 | O=C1CCN(Cc2ccccc2)CC1 | 104 | 1.1
14 | CCOC(=O)N1CCC(Nc2ccc(F)cc2)CC1 | 101 | 0.2
15 | COc1ccccc1C(=O)NCC1(N2CCOCC2)CCCCC1 | 114 | 0.4
16 | CCOC(=O)N1CCC(Nc2cccc(C)c2)CC1 | 102 | -0.6
17 | COc1ccc(C(=O)NCC2(N3CCCCC3)CCCCC2)cc1 | 101 | 0.4
18 | CCCN1CCC(Nc2ccc(OC)c(OC)c2)CC1 | 102 | -0.2
19 | CC1CN(CCc2ccccc2)CCC1=O (configuration not stated) | 115 | 0.3
20 | Cc1cnc(C(=O)NCC2(N3CCCCC3)CCCCC2)cn1 | 97 | 0.5
21 | N#CC1(Nc2ccccc2)CCN(Cc2ccccc2)CC1 | 102 | -0.1

Row | Structure (SMILES) | % elongation [%] | z-score
22 | CCOc1ncccc1C(=O)NCC1(N(C)C)CCCCC1 | 105 | -0.1
23 | COc1cc(C(=O)NCC2(N3CCOCC3)CCCCC2)cc(OC)c1OC | 113 | -0.3
24 | CCOc1ncccc1C(=O)NCC1(N2CCCCC2)CCCCC1 | 107 | 0
25 | O=C(NCC1(N2CCCCC2)CCCCC1)c1n[nH]c2ccccc12 | 104 | -0.8
26 | CN(C)C1(CNC(=O)c2ccc(C(C)(C)C)cc2)CCCCC1 | 109 | 0.4
27 | CCN1CCC(Nc2ccc(F)cc2)CC1 | 103 | 0.2
28 | CC(C)(C)c1ccc(C(=O)NCC2(N3CCOCC3)CCCCC2)cc1 | 111 | 0.2
29 | O=c1[nH]c2ccccc2n1C1CCN(CCCC(c2ccc(F)cc2)c2ccc(F)cc2Cl)CC1 (configuration not stated) | 103 | -0.4
30 | CC1CN(CCc2ccccc2)C(C)CC1=O (configuration not stated) | 115 | 0.8
31 | CN(C)c1ccc(C(=O)NCC2(N3CCCCC3)CCCCC2)cc1 | 103 | 0.6
32 | Cc1ccccc1C(=O)NCC1(N(C)C)CCCCC1 | 103 | 0
33 | O=C(NCC1(N2CCOCC2)CCCCC1)c1ccc([N+](=O)[O-])cc1 | 112 | -0.1
34 | O=C(NCC1(N2CCOCC2)CCCCC1)c1ccccc1[N+](=O)[O-] | 108 | -0.1
35 | O=C(NCC1(N2CCOCC2)CCCCC1)c1cc2ccccc2cc1O | 94 | -0.4
36 | CCCN1CCC(Nc2cc(OC)cc(OC)c2)CC1 | 103 | 0.1
37 | O=C(NCC1(N2CCOCC2)CCCCC1)c1ccccc1 | 106 | -0.6
38 | Cc1c(C(=O)NCC2(N3CCOCC3)CCCCC2)oc2c(Cl)cccc12 | 112 | 0.1
39 | NC(=O)C1(Nc2ccccc2)CCN(Cc2ccccc2)CC1 | 106 | 0.5
40 | CN1CCC(Nc2ccc(F)cc2)CC1 | 105 | -0.2
41 | O=C1CCN(CCc2ccccc2)CC1 | 106 | 0.7
